Measurements published in article PMC10352325, “Nitro-benzylideneoxymorphone, a bifunctional mu and delta opioid receptor ligand with high mu opioid receptor efficacy” (Frontiers in Pharmacology, 2023).

tested on: DOPr; parameters: species or system human; details: ratio of binding Ki
Procedure: Cell lines, cell culture, and drug preparation. The hDOPr-CHO cell line was a generous gift from Dr. Larry Toll at the Torrey Pines Institute. The hMOPr- and hKOPr-CHO cell lines were generous gifts from John M. Streicher at the University of Arizona. All cells were cultured in 50:50 DMEM/F12 media with 10% heat-inactivated FBS and 1X penicillin/streptomycin supplement (all Gibco brand) in a 37°C humidified incubator with 5% CO2 atmosphere. Propagation cultures were further maintained with 500 μg/mL G418. Cultures were propagated for no more than 30 passages before discarding. […] Cell pellets were resuspended in 50 mM Tris HCl pH 7.4 and homogenized with a tissue grinder for 15–30 s on ice. Crude membranes were spun down at 15,000 g for 30 min. This process was repeated, and membrane preparations were stored at −80°C prior to use.
Briefly, these reactions were miniaturized to a 400 μL volume in 96 well plates and incubated at RT for 1 h at DOPr-, KOPr- and MOPr-CHO membrane preparations. The reactions were terminated by rapid filtration through 96-well format GF/B filter plates (PerkinElmer) and washed with cold 25 mM Tris HCl pH 7.4 buffer, dried, and added ECOLUME^TM scintillation cocktail from MP Biomedicals (Santa Cruz, CA, United States). The plates were read in a MicroBeta2 96-well format 6 detector scintillation counter (PerkinElmer). KI values were calculated using the IC50 of each competitor ligand and the previously established KD of ^3H-diprenorphine in each cell line using a competition binding model (GraphPad Prism 7.0).

SMILES	Selectivity DOPr/MOPr (Ki)
CN1CC[C@]23c4c5ccc(O)c4O[C@H]2C(=O)/C(=C/c2ccc(F)cc2)C[C@@]3(O)[C@H]1C5 [Compound 7]	2.8
CN1CC[C@]23c4c5ccc(O)c4O[C@H]2C(=O)/C(=C/c2ccc(Cl)cc2)C[C@@]3(O)[C@H]1C5 [Compound 8]	2.0
CN1CC[C@]23c4c5ccc(O)c4O[C@H]2C(=O)/C(=C/c2ccc(Br)cc2)C[C@@]3(O)[C@H]1C5 [Compound 9]	3.0
COc1ccc(/C=C2\C[C@@]3(O)[C@H]4Cc5ccc(O)c6c5[C@@]3(CCN4C)[C@@H](O6)C2=O)cc1 [Compound 10]	3.4
CN1CC[C@]23c4c5ccc(O)c4O[C@H]2C(=O)/C(=C/c2ccc(O)cc2)C[C@@]3(O)[C@H]1C5 [Compound 11]	1.6
CN1CC[C@]23c4c5ccc(O)c4O[C@H]2C(=O)/C(=C/c2ccc([N+](=O)[O-])cc2)C[C@@]3(O)[C@H]1C5 [Compound 12, Nitro-benzylideneoxymorphone]	11
CN1CC[C@]23c4c5ccc(O)c4O[C@H]2C(=O)/C(=C/c2cccc4ccccc24)C[C@@]3(O)[C@H]1C5 [Compound 13]	0.7
CN1CC[C@]23c4c5ccc(O)c4O[C@H]2C(=O)/C(=C/c2ccc4ccccc4c2)C[C@@]3(O)[C@H]1C5 [Compound 14]	28
